# Data from the supplement of paper PMC6411743.
# ± gives the standard deviation of the averaged measurements. The entries are a selection whose mix differs from that of the whole data set.
# Tests used:
# Test in all cases: NP40-soluble protein abundance relative to vehicle (solubility fold change) (ratio); higher = more soluble protein in presence of ATP
# AATF = molecular target: T1, AATF (UniProt Q9NY61)
# T1 sequence (whole entry): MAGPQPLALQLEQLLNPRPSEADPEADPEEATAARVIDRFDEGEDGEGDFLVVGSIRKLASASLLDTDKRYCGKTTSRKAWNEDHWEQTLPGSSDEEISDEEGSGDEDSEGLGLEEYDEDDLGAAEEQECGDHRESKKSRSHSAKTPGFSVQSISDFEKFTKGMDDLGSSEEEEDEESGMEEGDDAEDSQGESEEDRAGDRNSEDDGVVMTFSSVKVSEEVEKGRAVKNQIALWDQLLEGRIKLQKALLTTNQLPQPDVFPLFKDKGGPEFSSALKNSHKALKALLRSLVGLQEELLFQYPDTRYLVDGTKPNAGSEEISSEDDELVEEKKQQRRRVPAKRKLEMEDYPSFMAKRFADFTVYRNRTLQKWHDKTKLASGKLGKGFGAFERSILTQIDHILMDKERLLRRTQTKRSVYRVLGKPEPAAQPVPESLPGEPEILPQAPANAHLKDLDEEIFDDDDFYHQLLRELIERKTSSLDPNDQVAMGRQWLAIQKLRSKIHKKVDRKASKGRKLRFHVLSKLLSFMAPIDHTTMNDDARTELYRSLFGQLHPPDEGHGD
# Procedure, shortened: (§1)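 Jurkat crude lysate prepared with a Dounce homogeniser was treated at eight concentrations spanning 0.1 to 10 mM, 10 min at room temperature then 3 min at 37 °C. Solubilisation with 0.8% NP40 and benzonase and ultracentrifugation preceded TMT labelling of the supernatant for LC-MS/MS. Fold change against the detergent-processed vehicle was determined per replicate from vsn-normalised intensities, across three independent experiments.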
# DCP1A = molecular target: T2, DCP1A (UniProt Q9NPI6)
# T2 sequence (whole entry): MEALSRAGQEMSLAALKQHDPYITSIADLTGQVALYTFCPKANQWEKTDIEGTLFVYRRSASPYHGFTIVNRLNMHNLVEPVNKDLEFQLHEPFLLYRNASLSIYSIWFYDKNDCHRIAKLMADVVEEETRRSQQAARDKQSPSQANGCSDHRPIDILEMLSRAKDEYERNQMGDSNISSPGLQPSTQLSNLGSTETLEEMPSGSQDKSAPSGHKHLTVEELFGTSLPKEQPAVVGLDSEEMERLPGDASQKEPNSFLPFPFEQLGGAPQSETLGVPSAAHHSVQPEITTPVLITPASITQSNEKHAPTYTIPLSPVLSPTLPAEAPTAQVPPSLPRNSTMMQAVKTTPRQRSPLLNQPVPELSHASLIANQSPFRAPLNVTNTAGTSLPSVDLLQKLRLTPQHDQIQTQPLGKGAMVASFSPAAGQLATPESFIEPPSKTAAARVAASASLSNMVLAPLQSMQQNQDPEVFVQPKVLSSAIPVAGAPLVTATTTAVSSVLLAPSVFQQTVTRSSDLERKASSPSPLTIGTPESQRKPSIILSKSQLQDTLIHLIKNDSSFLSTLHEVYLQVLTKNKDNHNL
# Procedure, shortened: as §1
# FARSB = molecular target: T3, FARSB (UniProt Q9NSD9)
# T3 sequence (whole entry): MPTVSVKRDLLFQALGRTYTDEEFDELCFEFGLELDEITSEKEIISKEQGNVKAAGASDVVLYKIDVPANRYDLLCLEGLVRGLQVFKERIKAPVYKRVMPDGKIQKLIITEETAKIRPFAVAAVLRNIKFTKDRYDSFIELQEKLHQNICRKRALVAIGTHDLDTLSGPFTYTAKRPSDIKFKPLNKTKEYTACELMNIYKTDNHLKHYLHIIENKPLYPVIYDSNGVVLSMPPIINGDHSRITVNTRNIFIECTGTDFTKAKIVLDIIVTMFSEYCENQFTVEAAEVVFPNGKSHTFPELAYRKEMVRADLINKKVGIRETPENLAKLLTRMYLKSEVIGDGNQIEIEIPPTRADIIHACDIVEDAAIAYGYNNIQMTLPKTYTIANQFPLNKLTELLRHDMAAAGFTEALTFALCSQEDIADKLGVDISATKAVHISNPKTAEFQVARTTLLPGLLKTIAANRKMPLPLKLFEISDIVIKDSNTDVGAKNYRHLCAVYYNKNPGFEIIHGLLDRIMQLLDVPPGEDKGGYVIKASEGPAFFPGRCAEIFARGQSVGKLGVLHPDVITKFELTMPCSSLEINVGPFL
# Procedure, shortened: as §1
# HSPBP1 = molecular target: T4, HSPBP1 (UniProt Q9NZL4)
# T4 sequence (whole entry): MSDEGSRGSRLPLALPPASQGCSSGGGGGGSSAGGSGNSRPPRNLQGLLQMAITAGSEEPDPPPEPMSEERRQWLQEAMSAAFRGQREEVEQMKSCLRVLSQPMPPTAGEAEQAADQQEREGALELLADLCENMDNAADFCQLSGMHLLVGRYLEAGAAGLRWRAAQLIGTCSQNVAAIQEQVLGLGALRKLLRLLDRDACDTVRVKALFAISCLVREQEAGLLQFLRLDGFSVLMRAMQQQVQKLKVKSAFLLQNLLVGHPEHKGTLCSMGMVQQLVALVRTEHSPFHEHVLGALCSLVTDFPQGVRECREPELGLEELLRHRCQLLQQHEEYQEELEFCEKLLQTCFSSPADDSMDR
# Procedure, shortened: as §1
# MED17 = molecular target: T5, MED17 (UniProt Q9NVC6)
# T5 sequence (whole entry): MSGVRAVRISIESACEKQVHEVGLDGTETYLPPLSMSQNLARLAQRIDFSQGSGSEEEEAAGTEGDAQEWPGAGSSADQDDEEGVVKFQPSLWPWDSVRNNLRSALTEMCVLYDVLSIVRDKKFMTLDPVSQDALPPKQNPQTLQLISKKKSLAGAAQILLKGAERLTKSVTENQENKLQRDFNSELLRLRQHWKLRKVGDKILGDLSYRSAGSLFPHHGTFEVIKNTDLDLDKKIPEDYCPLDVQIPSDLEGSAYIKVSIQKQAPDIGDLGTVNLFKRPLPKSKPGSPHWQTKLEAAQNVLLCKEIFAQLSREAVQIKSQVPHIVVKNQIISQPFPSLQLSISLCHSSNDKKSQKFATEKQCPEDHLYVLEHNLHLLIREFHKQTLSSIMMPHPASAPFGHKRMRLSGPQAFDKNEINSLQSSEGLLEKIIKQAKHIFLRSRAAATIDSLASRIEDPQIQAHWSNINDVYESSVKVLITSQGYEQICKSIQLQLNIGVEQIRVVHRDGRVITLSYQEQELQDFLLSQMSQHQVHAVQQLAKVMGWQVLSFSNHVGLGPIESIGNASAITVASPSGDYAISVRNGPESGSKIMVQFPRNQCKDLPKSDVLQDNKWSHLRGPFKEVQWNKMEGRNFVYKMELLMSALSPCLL
# Procedure, shortened: as §1
# RBM12 = molecular target: T6, RBM12 (UniProt Q9NTZ6); conditions: concentration: 1mM
# T6 sequence (whole entry): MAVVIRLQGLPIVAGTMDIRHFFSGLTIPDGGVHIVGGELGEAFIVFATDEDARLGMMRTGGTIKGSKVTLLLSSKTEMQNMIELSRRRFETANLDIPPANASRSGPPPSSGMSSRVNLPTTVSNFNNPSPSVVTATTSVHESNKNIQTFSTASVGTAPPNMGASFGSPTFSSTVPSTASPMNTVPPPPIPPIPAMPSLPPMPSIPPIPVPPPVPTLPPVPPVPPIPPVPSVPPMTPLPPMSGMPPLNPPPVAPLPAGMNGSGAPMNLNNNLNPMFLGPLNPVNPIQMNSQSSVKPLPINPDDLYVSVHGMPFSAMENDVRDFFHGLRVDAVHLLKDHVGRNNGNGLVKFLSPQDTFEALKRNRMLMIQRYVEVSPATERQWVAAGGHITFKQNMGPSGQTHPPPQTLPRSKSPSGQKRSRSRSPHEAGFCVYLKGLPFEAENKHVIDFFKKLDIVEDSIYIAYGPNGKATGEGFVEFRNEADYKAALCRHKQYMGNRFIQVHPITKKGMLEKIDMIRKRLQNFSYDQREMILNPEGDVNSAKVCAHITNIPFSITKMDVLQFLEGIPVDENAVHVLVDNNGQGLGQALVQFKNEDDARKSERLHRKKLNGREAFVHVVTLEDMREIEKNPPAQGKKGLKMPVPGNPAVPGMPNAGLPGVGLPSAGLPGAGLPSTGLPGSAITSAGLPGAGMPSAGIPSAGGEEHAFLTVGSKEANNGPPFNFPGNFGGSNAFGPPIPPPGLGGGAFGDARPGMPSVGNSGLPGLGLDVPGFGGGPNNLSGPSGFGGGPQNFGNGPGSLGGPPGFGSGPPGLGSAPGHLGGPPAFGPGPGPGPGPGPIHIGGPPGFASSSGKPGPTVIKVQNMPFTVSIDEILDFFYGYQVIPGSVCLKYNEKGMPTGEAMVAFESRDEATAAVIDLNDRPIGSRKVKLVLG
# Procedure, shortened: as §1
smiles,measurement,setting,value
Nc1ncnc2c1ncn2[C@@H]1O[C@H](COP(=O)(O)OP(=O)(O)OP(=O)(O)O)[C@@H](O)[C@H]1O [adenosine triphosphate],NP40-soluble protein abundance,AATF; concentration: 1mM,1.03 ± 0.084
same,NP40-soluble protein abundance,AATF; concentration: 2mM,1.09 ± 0.085
same,NP40-soluble protein abundance,AATF; concentration: 4mM,1.15 ± 0.11
same,NP40-soluble protein abundance,AATF; concentration: 6mM,1.22 ± 0.034
same,NP40-soluble protein abundance,AATF; concentration: 8mM,1.22 ± 0.085
same,NP40-soluble protein abundance,AATF; concentration: 10mM,1.29 ± 0.078
same,NP40-soluble protein abundance,DCP1A; concentration: 1mM,0.978 ± 0.017
same,NP40-soluble protein abundance,DCP1A; concentration: 2mM,0.965 ± 0.019
same,NP40-soluble protein abundance,DCP1A; concentration: 4mM,0.984 ± 0.037
same,NP40-soluble protein abundance,DCP1A; concentration: 6mM,0.98 ± 0.02
same,NP40-soluble protein abundance,DCP1A; concentration: 8mM,0.958 ± 0.021
same,NP40-soluble protein abundance,DCP1A; concentration: 10mM,0.959 ± 0.023
same,NP40-soluble protein abundance,FARSB; concentration: 1mM,0.999 ± 0.07
same,NP40-soluble protein abundance,FARSB; concentration: 2mM,0.96 ± 0.065
same,NP40-soluble protein abundance,FARSB; concentration: 4mM,0.943 ± 0.053
same,NP40-soluble protein abundance,FARSB; concentration: 6mM,0.926 ± 0.11
same,NP40-soluble protein abundance,FARSB; concentration: 8mM,0.986 ± 0.045
same,NP40-soluble protein abundance,FARSB; concentration: 10mM,0.931 ± 0.063
same,NP40-soluble protein abundance,HSPBP1; concentration: 1mM,0.901 ± 0.039
same,NP40-soluble protein abundance,HSPBP1; concentration: 2mM,0.922 ± 0.022
same,NP40-soluble protein abundance,HSPBP1; concentration: 4mM,0.899 ± 0.033
same,NP40-soluble protein abundance,HSPBP1; concentration: 6mM,0.849 ± 0.077
same,NP40-soluble protein abundance,HSPBP1; concentration: 8mM,0.877 ± 0.046
same,NP40-soluble protein abundance,HSPBP1; concentration: 10mM,0.87 ± 0.062
same,NP40-soluble protein abundance,MED17; concentration: 1mM,1.01 ± 0.053
same,NP40-soluble protein abundance,MED17; concentration: 2mM,0.996 ± 0.064
same,NP40-soluble protein abundance,MED17; concentration: 4mM,1.04 ± 0.068
same,NP40-soluble protein abundance,MED17; concentration: 6mM,0.983 ± 0.064
same,NP40-soluble protein abundance,MED17; concentration: 8mM,1.03 ± 0.068
same,NP40-soluble protein abundance,MED17; concentration: 10mM,1.03 ± 0.052
same,NP40-soluble protein abundance,RBM12,0.962 ± 0.075

# Two records picked at random from the list so far:
smiles,measurement,setting,value
Nc1ncnc2c1ncn2[C@@H]1O[C@H](COP(=O)(O)OP(=O)(O)OP(=O)(O)O)[C@@H](O)[C@H]1O [adenosine triphosphate],NP40-soluble protein abundance,AATF; concentration: 10mM,1.29 ± 0.078
same,NP40-soluble protein abundance,AATF; concentration: 6mM,1.22 ± 0.034
